# Laboratory results taken from PubChem BioAssay AID1347076 (National Center for Advancing Translational Sciences (NCATS), 2019).
# About 13,000 (3.2%) of roughly 400,000 compounds were called active. The inconclusive results got no clear call from the source; some entries with a clear call stand among them for comparison. Calls follow the shape of the dose curve; as a rule, active = well fitted cell-killing curve with a large enough effect; inconclusive = small, poorly fitted or top-dose-only effect, or effect the other way; inactive = flat fitted curve, though single readings scatter. Potencies of inconclusive entries are doubtful fits and often do not repeat.
# Test: qHTS assay for MDR1-selective chemotherapeutics: Primary screen using the drug-selected MDR subline cells KB-V1; also: nearly all actives have a fitted effect of over 60% in size
# Details: KB-V1 MDR cells viability, CellTiter-Glo, 72 h; activity change, negative = cytotoxicity: at 46.1 µM (top of the series)
# Procedure, shortened: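 In this primary screen, KB-V1 cells overexpressing P-gp are incubated with library compounds (lowest to highest concentration) for 72 h at 37 degrees C before a luminescent ATP viability read.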
# % is scaled to controls: 0 for no effect and ±100 for the full control effect; potency is read from the fitted curve at half-maximal effect.
Compound,Potency,"activity change, negative = cytotoxicity"
CC1=CC2OC3CC4OC(=O)C=CC=CC(=O)OCCC(C)C(O)C(=O)OCC2(CC1)C4(C)C31CO1 (centres undefined),active: 0.103 µM,
COc1ccc(NP(=O)(Oc2cccc(C)c2)Oc2cccc(C)c2)cc1OC,"inconclusive: 6.51 µM [cytotoxic, full curve]",
CCCCn1c(O)c(C(C)=NCCc2ccccc2)c(=O)[nH]c1=O,"inconclusive: 2.59 µM [cytotoxic, partial curve, poor fit]",
O=C(OC1CCN(CCCl)CC1)C(c1ccccc1)c1ccccc1,inactive,
c1ccc(CCCN2CCN(CCOC(c3ccccc3)c3ccccc3)CC2)cc1,active: 10.3 µM,
Cc1ccc(-c2cc(-c3ccccc3)cc(-c3ccccc3)[n+]2-c2ccccc2C(=O)O)cc1,inactive,
Cc1ccc(N2C(=O)NC(=O)C3(Cc4ccccc4N4CCN(c5ccccc5)CC43)C2=O)cc1 (centres undefined),"inconclusive: 5.17 µM [cytotoxic, partial curve]",
COC(=O)C1=C(c2ccc(Cl)c(C(F)(F)F)c2)C[C@@H]2CC[C@H]1N2C(=O)NC1CCCCC1,"inconclusive: 14.6 µM [cytotoxic, partial curve]",
CC(C)(C)n1nnnc1C(c1cc2ccccc2o1)N1CCC2(CC1)C(=O)NCN2c1ccccc1 (centres undefined),"inconclusive: 16.4 µM [cytotoxic, single point]",
Cc1nn(-c2ccccc2)c(C)c1NC(=O)COC(=O)Cc1ccccc1,inactive,
CC(C)(C)n1nnnc1C(CCc1ccccc1)N1CCC2(CC1)C(=O)NCN2c1ccccc1 (centres undefined),"inconclusive: 29.1 µM [cytotoxic, single point]",
C[C@]12CCC(=O)C=C1CC[C@@H]1[C@@H]2CC[C@@]2(C)[C@H]1CC[C@]2(C)O,"inconclusive: 20.6 µM [cytotoxic, single point]",
C=CCn1c(O)c(C(C)=Nc2ccc(N(CC)CC)cc2)c(=O)[nH]c1=O,active: 11.6 µM,
CCCNC(=O)N1[C@H]2CC[C@@H]1C(C(=O)OC)=C(c1cc3ccccc3s1)C2,inactive,
Cc1ccc(N2C(=O)NC(=O)C(CCc3ccncc3)(Cc3cccc(Cl)c3Cl)C2=O)cc1 (centres undefined),inactive,
COC(=O)CCCNC(=O)CN1CC(c2ccccc2)CC1=O (centres undefined),"inconclusive: 29.1 µM [rising, single point]",
O=C1NC(=O)C(C2CCOC2=O)N1 (centres undefined),inactive,
O=C(c1ccccc1)N1CCC2(CC1)OCCO2,"inconclusive: 29.1 µM [cytotoxic, single point]",
CCn1nc(-c2cccs2)nc2c(=O)n(C)c(=O)nc1-2,"inconclusive: 2.91 µM [cytotoxic, partial curve]",
c1ccc2c(CNC3CCCCC3)c[nH]c2c1,inactive,
C[C@]12CC[C@@H](O)CC1=CCC1C2CC[C@@]2(C)C1C[C@@H](F)[C@@H]2O (some centres undefined),"inconclusive: 14.6 µM [rising, partial curve, poor fit]",
CCN(CC)C(=O)Cn1cc(/C=C2\C(=O)NC(=O)N(c3ccccc3F)C2=O)c2ccccc21,"inconclusive: 16.4 µM [rising, single point]",
CCN(CC)S(=O)(=O)c1cccc(N=Nc2c(O)n(CC)c(=S)n(CC)c2=O)c1,"inconclusive: 20.6 µM [cytotoxic, partial curve, poor fit]",

# Arranged by molar mass (smallest number first): part of the list above
Compound,Potency,"activity change, negative = cytotoxicity"
O=C1NC(=O)C(C2CCOC2=O)N1 (centres undefined),inactive,
CC(C)(C)n1nnnc1C(c1cc2ccccc2o1)N1CCC2(CC1)C(=O)NCN2c1ccccc1 (centres undefined),"inconclusive: 16.4 µM [cytotoxic, single point]",
CC1=CC2OC3CC4OC(=O)C=CC=CC(=O)OCCC(C)C(O)C(=O)OCC2(CC1)C4(C)C31CO1 (centres undefined),active: 0.103 µM,

# More entries follow.

Compound,Potency,"activity change, negative = cytotoxicity"
Cc1cccc(C)c1-n1nnnc1C(CCc1ccccc1)N1CCC2(CC1)C(=O)NCN2c1ccccc1 (centres undefined),inactive,
Cc1ccc(-n2c(=S)[nH]c3ccccc3c2=O)cc1C,inactive,
Cc1cccc(NC2=NCCCS2)c1,inactive,
COc1cc([C@H]2OC[C@H]3[C@@H]2CO[C@@H]3c2cc(OC)c(O[C@@H]3O[C@H](CO)[C@@H](O)[C@H](O)[C@H]3O)c(OC)c2)cc(OC)c1O[C@H]1O[C@@H](CO)[C@H](O)[C@@H](O)[C@@H]1O,"inconclusive: 20.6 µM [rising, partial curve, poor fit]",
CCC(CO)NC(=O)C1C=C2c3cccc4[nH]cc(c34)CC2N(C)C1 (centres undefined),inactive,
CN1CCN(CC(=O)Nc2ccc(Cl)cc2C(=O)c2ccccc2)CC1,inactive,
CCc1ccccc1NC(=O)CN1CCN(C(=O)COc2ccccc2C#N)CC1,"inconclusive: 20.6 µM [cytotoxic, single point]",
O=[N+]([O-])c1ccc(NCCO)c2ncccc12,"inconclusive: 20.6 µM [cytotoxic, single point]",
Cc1ccc(S(=O)(=O)N(c2cc(Cl)c(O)c(Cl)c2)P(=O)(OC(C)C)OC(C)C)cc1,inactive,
COc1ccc(/C=C/c2nc3ccccc3c(=O)n2-c2ccc(C)cc2)cc1O,inactive,
COC(=O)C1=C(c2cc3ccccc3s2)C[C@@H]2CC[C@H]1N2C(=O)NCc1ccco1,inactive,
O=c1c2ccccc2nc(/C=C/c2ccc(O)cc2)n1-c1cccc(O)c1,inactive,
CCOC(=O)C1(c2ccccc2)CCN(CCC(=O)Nc2ccc(OC)cc2)CC1,inactive,
CCn1cc(C=C2C(=O)N(C)C(=O)N(C)C2=O)c2ccccc21,"inconclusive: 16.4 µM [rising, single point]",
Cc1cc(OCC(=O)NC(Cc2ccc(Cl)cc2)C(=O)O)c2c3c(c(=O)oc2c1)CCC3 (centres undefined),"inconclusive: 29.1 µM [rising, single point]",
COC1C(OC(=O)c2ccc(C)[nH]2)C(O)C(Oc2ccc3c(O)c(NC(=O)c4ccc(O)c(CC=C(C)C)c4)c(=O)oc3c2Cl)OC1(C)C (centres undefined),inactive,
COc1ccc(CC(=O)N2C[C@H]3C[C@@H](C2)c2cccc(=O)n2C3)cc1,inactive,
ClCCN(CCCl)/C(=C\c1ccccc1)c1ccnc2ccccc12,"inconclusive: 3.26 µM [cytotoxic, partial curve, poor fit]",
NP(=O)(Oc1ccccc1Cl)Oc1ccccc1Cl,"inconclusive: 29.1 µM [rising, partial curve, poor fit]",
CCOc1cc(CNCCc2c[nH]c3ccccc23)cc(Cl)c1OCC,"inconclusive: 18.4 µM [cytotoxic, partial curve, poor fit]",
COc1cc2c(cc1OC)CN(c1ccc([N+](=O)[O-])c(C(F)(F)F)c1)CC2,inactive,
CCCCn1c(NS(=O)(=O)c2ccccc2)c(C(=O)OCC)c2nc3ccccc3nc21,"inconclusive: 23.1 µM [cytotoxic, single point]",
C=Cn1ccnc1P(=S)(c1ccc(Cl)cc1)c1nccn1C=C,"inconclusive: 16.4 µM [rising, single point]",

Compound,Potency,"activity change, negative = cytotoxicity"
O=S1(=O)CCN(CCc2c[nH]c3ccccc23)CC1,"inconclusive: 1.84 µM [rising, full curve]",
CNC(=S)N(C)CCc1cc2c(c(OC)c1C=C1C(=O)NC(=O)NC1=O)OCO2,"inconclusive: 29.1 µM [rising, single point]",
CC(C)(C)NC(=O)C1CC2CCCCC2CN1 (centres undefined),"inconclusive: 29.1 µM [rising, partial curve, poor fit]",
CC(C)OS(C)(=O)=O,inactive,
O=C(COC(=O)Cc1ccccc1)Nc1ccc(F)cc1,"inconclusive: 29.1 µM [rising, single point]",
C=CCn1c(O)c(C(CC)=NCCC2=CCCCC2)c(=O)[nH]c1=O,active: 8.91 µM,
O=C(Cn1cnc2sc3c(c2c1=O)CCCC3)NCCC(=O)N1CCC2(CC1)OCCO2,"inconclusive: 29.1 µM [cytotoxic, partial curve, poor fit]",
CCCCCn1c(N)c(C(=O)NCCN2CCOCC2)c2nc3ccccc3nc21,"inconclusive: 29.1 µM [cytotoxic, single point]",
CCOC(=O)c1c(-n2c(C)cc(/C=C3/C(=O)NC(=O)N(CC)C3=O)c2C)sc2c1CCCC2,"inconclusive: 25.9 µM [cytotoxic, single point]",
O=C(NCCN1CCC(n2c(=O)[nH]c3ccccc32)CC1)c1ccc2ccccc2c1,"inconclusive: 32.6 µM [cytotoxic, partial curve, poor fit]",
O=C(O)c1ccccc1-c1ccc(C=C2C(=O)N(c3ccccc3)C(=S)N(c3ccccc3)C2=O)o1,,inconclusive: 33%
CSc1nc(Cl)c(Br)c(N2CC2)n1,inactive,
Cc1cc(S(=O)(=O)NC(C)C)ccc1OCC(=O)N1CCN(Cc2ccc3c(c2)OCO3)CC1,active: 2.59 µM,
COc1ccc2c(c1)C1(C(=O)O)CC=CCC1(C(=O)O)C2 (centres undefined),inactive,
CN1CCN(CCOC2c3ccccc3CSc3ccc(Cl)cc32)CC1 (centres undefined),"inconclusive: 18.4 µM [cytotoxic, single point]",
CCOC(=O)C1CCCN(c2ccc([N+](=O)[O-])c3nonc23)C1 (centres undefined),inactive,
COC(=O)C1=C(c2ccc(-c3ccccc3)c(F)c2)C[C@@H]2CC[C@H]1N2C(=O)N1CCCCC1,"inconclusive: 16.4 µM [cytotoxic, partial curve, poor fit]",
CCOC(=O)[C@]12Cc3ccccc3[C@H]1N(C(C)C)C(=O)c1cc(OC)ccc12,active: 4.11 µM,
Cc1cc(C(=O)OCC(=O)Nc2c(F)cccc2F)c(C)n1C1CC1,inactive,
COc1cc2c(cc1C=O)OCO2,"inconclusive: 29.1 µM [rising, single point]",
CCOC(=O)[C@]12Cc3cc(Cl)ccc3[C@H]1N(C(C)C)C(=O)c1ccccc12,active: 5.17 µM,
CCC(=O)O[C@@H]1[C@@H](OC(C)=O)[C@@]2(O)C(C[C@H](O)C2(C)C)[C@](C)(O)[C@H]2CC[C@@H]3[C@@H](O)[C@]12C[C@@]3(C)O (some centres undefined),"inconclusive: 18.4 µM [rising, single point]",
COCCCNC(=O)c1c(NC(=O)c2ccccc2Cl)n(Cc2ccccc2)c2nc3ccccc3nc12,active: 2.59 µM,
